Data published in article PMC10517019.
Results are given in words; binding and its absence hold for the method and conditions named. For some assays here: In cells and extracts the contact can be indirect. Some binding calls cover weakened binding; strength is not graded here. For some assays here: Where a sequence is shown, tags or fusion partners need not be part of it.

By UniProt entry, the sequences of proteins in these tests, tags left out.
UniProt Q13309: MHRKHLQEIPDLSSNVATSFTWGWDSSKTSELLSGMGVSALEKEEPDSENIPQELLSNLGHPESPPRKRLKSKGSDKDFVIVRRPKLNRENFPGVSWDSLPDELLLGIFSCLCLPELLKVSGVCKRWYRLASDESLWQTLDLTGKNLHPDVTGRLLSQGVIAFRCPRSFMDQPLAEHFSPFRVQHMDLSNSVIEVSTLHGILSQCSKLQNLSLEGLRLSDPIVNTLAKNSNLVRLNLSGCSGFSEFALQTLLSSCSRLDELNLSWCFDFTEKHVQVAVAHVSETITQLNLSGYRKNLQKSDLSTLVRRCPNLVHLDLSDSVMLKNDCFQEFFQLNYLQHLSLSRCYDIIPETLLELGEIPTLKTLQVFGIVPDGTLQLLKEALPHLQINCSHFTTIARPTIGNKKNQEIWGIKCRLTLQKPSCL
UniProt P26038: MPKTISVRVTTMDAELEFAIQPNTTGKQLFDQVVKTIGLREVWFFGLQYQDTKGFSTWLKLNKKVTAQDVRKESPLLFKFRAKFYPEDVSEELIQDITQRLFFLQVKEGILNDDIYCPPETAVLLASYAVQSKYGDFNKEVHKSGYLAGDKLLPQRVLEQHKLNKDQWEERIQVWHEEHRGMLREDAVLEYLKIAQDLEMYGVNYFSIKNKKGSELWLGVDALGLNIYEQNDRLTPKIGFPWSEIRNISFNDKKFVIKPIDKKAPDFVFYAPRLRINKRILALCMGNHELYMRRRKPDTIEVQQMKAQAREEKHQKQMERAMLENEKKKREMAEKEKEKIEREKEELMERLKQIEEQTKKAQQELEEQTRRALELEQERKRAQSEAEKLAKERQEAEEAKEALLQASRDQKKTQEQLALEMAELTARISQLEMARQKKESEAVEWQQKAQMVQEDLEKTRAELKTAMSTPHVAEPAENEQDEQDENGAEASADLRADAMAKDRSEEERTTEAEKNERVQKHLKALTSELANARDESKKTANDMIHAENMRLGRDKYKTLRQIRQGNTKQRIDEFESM

Legend:
[1] = target: SKP2, endogenous (human (endogenous in MCF7)) (UniProt Q13309); experiment: co-IP; endogenous proteins; MCF7 whole-cell lysates immunoprecipitated with anti-IgG or anti-SKP2 antibody, immunoblot
[2] = target: T1, F-box and WD repeat-containing protein 2 (FBXW2), endogenous (human (endogenous in MCF7 and MDA-MB-231)) (UniProt Q9UKT8); experiment: co-IP; endogenous proteins; MCF7 (and MDA-MB-231) whole-cell lysates immunoprecipitated with anti-IgG or anti-FBXW2 antibody, immunoblot
T1 sequence: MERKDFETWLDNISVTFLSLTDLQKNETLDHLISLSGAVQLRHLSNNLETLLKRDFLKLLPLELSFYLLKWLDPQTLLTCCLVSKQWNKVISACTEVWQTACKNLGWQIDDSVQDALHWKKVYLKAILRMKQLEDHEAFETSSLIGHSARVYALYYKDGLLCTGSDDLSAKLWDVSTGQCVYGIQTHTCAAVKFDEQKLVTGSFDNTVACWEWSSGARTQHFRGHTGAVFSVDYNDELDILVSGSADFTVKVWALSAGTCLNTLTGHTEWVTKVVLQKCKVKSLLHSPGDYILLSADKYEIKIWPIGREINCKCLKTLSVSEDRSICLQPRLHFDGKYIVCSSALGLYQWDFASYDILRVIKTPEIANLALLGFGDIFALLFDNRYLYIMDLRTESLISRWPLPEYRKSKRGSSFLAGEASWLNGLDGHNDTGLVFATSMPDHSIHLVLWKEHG

FLAG-FBXW2, full length = target: T2, FLAG-FBXW2, full length (UniProt Q9UKT8); experiment: co-IP; MCF7 cells transfected with vector, FLAG-FL-FBXW2 or FLAG-∆F-FBXW2 36 h, 5 µM MG132 6 h; anti-FLAG immunoprecipitation, immunoblot (Fig. 4E); also FLAG-FBXW2 with or without 5 µM AKT inhibitor 12 h or AKT silencing (Fig. 6D)
T2 sequence: T1 sequence

[3] = target: FLAG-SKP2 (recombinant, purified) (UniProt Q13309); experiment: pull-down; recombinant purified GST or GST-Moesin incubated with Ni-NTA bead-bound FLAG-SKP2 for 2 h at room temperature, beads washed, eluted with SDS buffer, immunoblot; both purified
His-FBXW2 (recombinant) = target: T3, His-FBXW2 (recombinant) (UniProt Q9UKT8); experiment: pull-down; Ni-NTA bead-bound His-FBXW2 incubated with purified GST or GST-Moesin (methods: 6 h at 4 °C; legend: 2 h at room temperature), washed with IP lysis buffer, eluted with SDS buffer, immunoblot; both purified
T3 sequence: T1 sequence

Substance | binding [1] | binding [2] | binding (FLAG-FBXW2, full length) | binding [3] | binding (His-FBXW2 (recombinant))
Membrane-organizing extension spike protein (Moesin), endogenous (from UniProt P26038 1-577) | binds | binds | binds |  | 
GST-Moesin (recombinant) (from UniProt P26038 1-577) |  |  |  | binds | binds
